Assay results from US10973778B2, “Using edible carriers to produce Curcuma extracts for oral and topical use” (California Northstate College of Pharmacy, LLC, priority 2012, dated 2021).
For at least one compound, name, drawing or mass did not settle the structure.

Assay: UV absorption spectra of sunscreen agents and Curcuma longa L. extract
Format: physicochemical
Settings: absorption spectrum in methanol, 0.5-20 ug/ml depending on agent (FIGS. 1A-1D)
Description: FIGS. 1A-1F compare the absorption spectra of representative current state-of-the-art sunscreen agents to the absorption spectra of Curcuma longa L., according to some embodiments.
The representative sunscreen agents show peaks in the absorption spectrum between the wavelengths of 290 nm to 400 nm which is the range of interest. Ideally, a desired agent would absorb energy across the entire range of 290 nm to 400 nm. In FIGS. 1A-1E, for example, a variety of peak positions are seen in the representative agents, where a high (desirable) absorption can be shown at the wavelength of the peak but there is usually a low or zero absorption at the trough, which is, of course, undesirable. Even combinations of sunscreen agents with peaks and troughs may leave areas within the wavelength range that are not covered, leaving wavelengths for which there is little or no UV protection, an undesirable situation.

SMILES: CCCCC(CC)COC(=O)C=Cc1ccc(OC)cc1 (stereo not shown) [octyl methoxycinnamate]
- wavelength above which absorption is practically zero / practically no absorption: approximately 350 nm
